Measurements taken from the supplement of paper PMC10849652.
Some of the results follow.

Chains of the proteins cited; added tags and fusions are not shown. Lines headed by an entry give the natural chain unless they say otherwise; changes in a name come on top.
UniProt Q8NBF6: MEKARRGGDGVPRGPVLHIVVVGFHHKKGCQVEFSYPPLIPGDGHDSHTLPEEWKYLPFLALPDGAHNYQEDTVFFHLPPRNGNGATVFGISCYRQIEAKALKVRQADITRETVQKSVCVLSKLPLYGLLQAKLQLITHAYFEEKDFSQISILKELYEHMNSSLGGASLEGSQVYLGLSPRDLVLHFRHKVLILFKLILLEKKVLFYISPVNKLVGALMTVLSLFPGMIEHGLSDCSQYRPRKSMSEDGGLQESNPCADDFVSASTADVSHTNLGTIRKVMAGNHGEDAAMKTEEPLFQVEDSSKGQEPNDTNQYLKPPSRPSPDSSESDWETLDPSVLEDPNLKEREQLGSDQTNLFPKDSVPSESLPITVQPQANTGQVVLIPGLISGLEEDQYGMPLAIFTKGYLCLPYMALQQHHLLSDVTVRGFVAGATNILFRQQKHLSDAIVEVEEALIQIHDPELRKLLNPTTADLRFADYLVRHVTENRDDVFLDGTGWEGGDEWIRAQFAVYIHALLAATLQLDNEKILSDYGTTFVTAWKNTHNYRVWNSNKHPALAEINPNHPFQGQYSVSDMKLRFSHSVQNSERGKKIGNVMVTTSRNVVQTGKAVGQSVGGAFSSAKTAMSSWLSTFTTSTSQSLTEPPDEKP
UniProt P56385: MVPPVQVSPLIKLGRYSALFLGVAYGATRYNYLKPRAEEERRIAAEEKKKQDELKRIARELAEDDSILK
UniProt P56378: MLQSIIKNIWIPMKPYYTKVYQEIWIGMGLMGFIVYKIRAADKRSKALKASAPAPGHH
UniProt P18859: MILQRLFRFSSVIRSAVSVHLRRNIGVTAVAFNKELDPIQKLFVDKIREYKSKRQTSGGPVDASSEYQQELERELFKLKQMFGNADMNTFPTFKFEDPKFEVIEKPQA
UniProt Q13315: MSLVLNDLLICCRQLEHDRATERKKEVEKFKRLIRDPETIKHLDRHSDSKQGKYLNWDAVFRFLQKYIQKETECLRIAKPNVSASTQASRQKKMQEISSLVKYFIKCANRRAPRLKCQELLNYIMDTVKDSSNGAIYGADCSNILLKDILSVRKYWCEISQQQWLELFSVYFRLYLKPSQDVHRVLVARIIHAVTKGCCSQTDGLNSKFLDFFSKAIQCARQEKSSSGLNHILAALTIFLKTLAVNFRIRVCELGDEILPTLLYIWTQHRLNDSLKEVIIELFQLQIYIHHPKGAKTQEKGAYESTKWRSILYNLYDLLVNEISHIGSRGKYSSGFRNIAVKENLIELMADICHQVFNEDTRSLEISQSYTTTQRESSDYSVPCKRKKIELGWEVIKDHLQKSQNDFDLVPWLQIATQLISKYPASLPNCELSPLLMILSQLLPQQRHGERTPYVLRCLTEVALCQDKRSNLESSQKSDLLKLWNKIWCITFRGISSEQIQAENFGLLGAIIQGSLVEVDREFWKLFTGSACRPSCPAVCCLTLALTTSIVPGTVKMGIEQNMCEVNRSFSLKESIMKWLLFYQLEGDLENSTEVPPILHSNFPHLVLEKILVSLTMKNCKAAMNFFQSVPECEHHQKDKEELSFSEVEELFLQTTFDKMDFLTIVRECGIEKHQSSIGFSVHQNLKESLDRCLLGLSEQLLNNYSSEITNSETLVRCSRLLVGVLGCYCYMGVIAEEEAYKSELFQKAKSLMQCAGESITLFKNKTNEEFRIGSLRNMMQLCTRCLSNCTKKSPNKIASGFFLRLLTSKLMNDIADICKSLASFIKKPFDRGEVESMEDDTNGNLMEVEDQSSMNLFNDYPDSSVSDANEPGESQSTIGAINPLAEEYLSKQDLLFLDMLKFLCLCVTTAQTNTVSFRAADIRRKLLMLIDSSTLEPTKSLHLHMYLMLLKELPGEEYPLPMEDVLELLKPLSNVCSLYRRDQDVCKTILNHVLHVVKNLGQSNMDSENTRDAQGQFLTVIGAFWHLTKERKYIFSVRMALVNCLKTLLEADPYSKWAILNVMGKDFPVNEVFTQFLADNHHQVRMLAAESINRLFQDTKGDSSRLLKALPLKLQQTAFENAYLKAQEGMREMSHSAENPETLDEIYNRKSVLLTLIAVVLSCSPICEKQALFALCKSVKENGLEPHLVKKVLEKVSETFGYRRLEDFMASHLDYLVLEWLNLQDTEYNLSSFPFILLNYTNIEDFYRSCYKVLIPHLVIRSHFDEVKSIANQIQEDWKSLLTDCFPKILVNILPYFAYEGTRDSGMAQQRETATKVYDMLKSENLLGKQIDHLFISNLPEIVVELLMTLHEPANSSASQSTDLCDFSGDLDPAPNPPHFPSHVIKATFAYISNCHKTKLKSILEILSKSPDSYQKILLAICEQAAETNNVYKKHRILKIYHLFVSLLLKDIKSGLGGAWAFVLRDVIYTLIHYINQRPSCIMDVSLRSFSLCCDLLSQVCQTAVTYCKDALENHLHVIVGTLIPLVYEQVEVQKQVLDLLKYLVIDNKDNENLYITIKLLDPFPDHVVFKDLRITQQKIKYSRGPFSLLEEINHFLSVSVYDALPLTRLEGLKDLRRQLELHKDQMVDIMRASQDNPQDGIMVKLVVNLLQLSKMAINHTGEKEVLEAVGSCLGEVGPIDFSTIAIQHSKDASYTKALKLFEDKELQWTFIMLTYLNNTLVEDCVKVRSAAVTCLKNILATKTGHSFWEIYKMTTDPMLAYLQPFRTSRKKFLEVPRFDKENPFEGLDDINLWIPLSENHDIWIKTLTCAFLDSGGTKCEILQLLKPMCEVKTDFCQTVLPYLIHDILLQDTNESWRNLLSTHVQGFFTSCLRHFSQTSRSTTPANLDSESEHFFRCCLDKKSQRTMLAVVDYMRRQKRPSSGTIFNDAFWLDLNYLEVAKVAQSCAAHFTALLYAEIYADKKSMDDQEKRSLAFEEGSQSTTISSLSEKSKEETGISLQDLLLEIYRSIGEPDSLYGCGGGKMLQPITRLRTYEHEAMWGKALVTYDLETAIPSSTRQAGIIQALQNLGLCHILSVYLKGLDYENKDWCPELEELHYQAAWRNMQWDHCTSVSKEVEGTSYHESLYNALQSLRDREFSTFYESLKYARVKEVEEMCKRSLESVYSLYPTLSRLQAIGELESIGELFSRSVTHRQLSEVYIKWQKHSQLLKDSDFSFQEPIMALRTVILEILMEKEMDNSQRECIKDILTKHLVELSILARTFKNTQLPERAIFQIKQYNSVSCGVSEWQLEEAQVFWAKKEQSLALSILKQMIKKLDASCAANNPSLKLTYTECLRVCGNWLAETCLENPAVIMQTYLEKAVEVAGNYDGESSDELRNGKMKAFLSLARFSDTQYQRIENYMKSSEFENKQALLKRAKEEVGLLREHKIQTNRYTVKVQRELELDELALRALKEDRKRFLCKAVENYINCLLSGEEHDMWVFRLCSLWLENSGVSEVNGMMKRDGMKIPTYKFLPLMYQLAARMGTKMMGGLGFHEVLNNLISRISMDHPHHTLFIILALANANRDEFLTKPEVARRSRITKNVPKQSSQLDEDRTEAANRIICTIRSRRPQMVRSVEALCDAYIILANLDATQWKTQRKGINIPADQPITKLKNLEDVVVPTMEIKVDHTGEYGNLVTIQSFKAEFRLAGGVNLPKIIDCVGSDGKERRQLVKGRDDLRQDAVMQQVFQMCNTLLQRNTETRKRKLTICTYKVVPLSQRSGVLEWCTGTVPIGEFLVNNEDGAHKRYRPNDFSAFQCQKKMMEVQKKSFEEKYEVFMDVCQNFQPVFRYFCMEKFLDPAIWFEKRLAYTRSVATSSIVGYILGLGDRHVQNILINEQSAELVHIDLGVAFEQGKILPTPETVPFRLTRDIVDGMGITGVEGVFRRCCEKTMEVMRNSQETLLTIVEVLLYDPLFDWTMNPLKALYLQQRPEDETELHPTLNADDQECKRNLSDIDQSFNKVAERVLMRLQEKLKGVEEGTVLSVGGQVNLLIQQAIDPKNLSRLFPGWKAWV
UniProt Q14CW9: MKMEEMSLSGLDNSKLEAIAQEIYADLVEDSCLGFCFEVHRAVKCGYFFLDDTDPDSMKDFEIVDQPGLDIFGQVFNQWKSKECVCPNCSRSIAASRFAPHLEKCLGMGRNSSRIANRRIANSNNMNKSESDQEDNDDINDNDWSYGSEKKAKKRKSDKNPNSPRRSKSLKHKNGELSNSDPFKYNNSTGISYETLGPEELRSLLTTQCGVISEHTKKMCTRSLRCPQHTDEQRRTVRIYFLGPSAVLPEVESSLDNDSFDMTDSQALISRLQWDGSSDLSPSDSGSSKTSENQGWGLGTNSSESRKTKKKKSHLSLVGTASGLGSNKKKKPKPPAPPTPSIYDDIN
UniProt B2RBV5: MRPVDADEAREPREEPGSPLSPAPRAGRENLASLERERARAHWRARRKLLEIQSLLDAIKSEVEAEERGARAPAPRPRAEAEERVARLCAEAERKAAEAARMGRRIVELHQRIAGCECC
UniProt O14965: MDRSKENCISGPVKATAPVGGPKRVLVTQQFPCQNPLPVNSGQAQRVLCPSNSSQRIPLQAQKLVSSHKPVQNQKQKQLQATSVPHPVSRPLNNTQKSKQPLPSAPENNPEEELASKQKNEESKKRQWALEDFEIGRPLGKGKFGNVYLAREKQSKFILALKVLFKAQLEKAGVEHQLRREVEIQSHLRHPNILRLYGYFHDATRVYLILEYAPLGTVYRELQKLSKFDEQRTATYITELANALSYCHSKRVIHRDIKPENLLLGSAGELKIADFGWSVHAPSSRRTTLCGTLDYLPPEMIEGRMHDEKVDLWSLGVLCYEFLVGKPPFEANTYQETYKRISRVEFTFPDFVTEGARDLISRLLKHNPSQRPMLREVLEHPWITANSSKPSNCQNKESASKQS
UniProt Q5T9A4: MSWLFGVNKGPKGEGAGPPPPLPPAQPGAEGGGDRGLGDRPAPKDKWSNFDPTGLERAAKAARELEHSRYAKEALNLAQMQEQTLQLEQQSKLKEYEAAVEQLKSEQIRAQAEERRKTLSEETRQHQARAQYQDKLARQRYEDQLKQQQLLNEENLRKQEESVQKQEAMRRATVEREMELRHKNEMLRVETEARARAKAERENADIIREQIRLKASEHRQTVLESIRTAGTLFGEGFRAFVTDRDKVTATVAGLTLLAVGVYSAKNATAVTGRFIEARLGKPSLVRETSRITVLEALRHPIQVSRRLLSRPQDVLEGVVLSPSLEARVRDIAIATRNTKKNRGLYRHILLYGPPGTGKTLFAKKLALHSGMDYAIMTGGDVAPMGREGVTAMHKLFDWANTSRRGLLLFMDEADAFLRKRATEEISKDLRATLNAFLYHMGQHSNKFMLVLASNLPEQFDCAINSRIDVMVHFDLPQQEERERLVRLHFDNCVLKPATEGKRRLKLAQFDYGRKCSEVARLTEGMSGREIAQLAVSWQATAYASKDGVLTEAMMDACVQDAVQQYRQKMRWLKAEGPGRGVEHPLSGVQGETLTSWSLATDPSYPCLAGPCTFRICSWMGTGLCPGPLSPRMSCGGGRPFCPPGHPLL
UniProt P38606, whole entry, looked up: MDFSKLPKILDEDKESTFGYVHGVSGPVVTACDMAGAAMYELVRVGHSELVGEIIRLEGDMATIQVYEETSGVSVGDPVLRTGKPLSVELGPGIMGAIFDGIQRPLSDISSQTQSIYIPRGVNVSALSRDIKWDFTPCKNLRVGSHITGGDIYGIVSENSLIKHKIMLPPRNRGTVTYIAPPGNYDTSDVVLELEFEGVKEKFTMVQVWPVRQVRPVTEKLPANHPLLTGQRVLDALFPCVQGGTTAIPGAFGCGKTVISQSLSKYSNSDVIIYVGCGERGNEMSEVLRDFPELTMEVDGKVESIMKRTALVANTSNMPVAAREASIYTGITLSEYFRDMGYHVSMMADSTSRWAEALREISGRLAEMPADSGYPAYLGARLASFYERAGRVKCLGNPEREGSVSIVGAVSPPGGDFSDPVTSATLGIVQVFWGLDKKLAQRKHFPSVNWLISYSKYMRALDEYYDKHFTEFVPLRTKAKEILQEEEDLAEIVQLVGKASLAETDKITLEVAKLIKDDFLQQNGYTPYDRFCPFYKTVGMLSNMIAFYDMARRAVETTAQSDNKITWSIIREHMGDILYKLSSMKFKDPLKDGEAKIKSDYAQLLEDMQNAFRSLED
UniProt Q15904, whole entry, looked up: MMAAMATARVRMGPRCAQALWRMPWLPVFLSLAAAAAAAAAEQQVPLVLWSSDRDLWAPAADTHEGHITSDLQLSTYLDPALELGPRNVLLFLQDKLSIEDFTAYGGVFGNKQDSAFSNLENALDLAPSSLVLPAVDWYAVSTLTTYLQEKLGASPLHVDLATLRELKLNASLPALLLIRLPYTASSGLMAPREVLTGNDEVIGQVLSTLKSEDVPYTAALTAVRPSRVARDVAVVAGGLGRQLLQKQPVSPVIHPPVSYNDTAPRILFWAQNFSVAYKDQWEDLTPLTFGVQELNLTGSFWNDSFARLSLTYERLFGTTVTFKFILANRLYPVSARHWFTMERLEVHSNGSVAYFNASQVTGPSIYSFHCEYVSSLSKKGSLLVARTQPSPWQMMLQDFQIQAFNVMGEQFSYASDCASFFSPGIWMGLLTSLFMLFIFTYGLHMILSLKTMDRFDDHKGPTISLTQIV

compound: Cn1cc(CNCC2CCN(c3ncc(C(=O)NO)cn3)CC2)c2ccccc21 [quisinostat]; test: log2 fold change, soluble protein after heating vs DMSO (PISA); higher = thermal stabilisation; K562 lysate, 10 uM; active = over 0.2 and 3.5 SD of the protein, either way, in both replicates (recomputed)
Procedure, shortened: (§1)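 The values are log-two fold changes in thermal stability compared with solvent controls and come from duplicates. They were obtained by TMTpro 16plex LC-MS/MS, with channel sums equalised, on the supernatant after 21,000xg for 90 min. That supernatant came from crude K562 extract at 1 mg/mL protein treated with 10 μM compound for 30 min, heated for 3 min across 48°C-58°C, pooled and brought to 0.5% NP-40 at 4°C.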

Target | log2 fold change
ATP5F1B (UniProt H0YI37) | inactive: -1.26
AVL9 (UniProt Q8NBF6) | inactive: -0.088
ATF7IP2 (UniProt Q5U623) | active: -0.336
ATP5ME (UniProt P56385) | inactive: -0.003
ATP11C, A0A067XG54 | inactive: -0.113
ATP5MPL (UniProt P56378) | inactive: -0.061
ATP5PF isoform 2 (UniProt P18859) | inactive: 0.11
ATM (UniProt Q13315) | inactive: 0.039
ATP13A1 (UniProt Q9HD20) | inactive: 0.001
ATRN (UniProt O75882) | inactive: -0.068
B3GNTL1 (UniProt Q67FW5) | inactive: -0.066
ATP1B1 (UniProt P05026) | inactive: 0.055
B4GALNT1 (UniProt Q00973) | inactive: -0.063
ATXN7L3 isoform 2 (UniProt Q14CW9) | inactive: 0.084
AUH (UniProt Q13825) | inactive: -0.002
NA (UniProt B2RBV5) | inactive: -0.044
ATG16L1 (UniProt Q676U5) | inactive: 0.081
ATE1 isoform 2 (UniProt O95260) | inactive: -0.014
ASXL2 (UniProt Q76L83) | inactive: 0.155
AURKA (UniProt O14965) | inactive: -0.117
ATXN2 (UniProt F8WB05) | inactive: -0.208
ATP6V0A1 (UniProt Q93050) | inactive: 0.045
ATP1A1 (UniProt P05023) | inactive: 0.035
ATP11C (UniProt Q8NB49) | inactive: -0.002
ATP6V0C (UniProt P27449) | inactive: -0.062
ATAD3B (UniProt Q5T9A4) | inactive: 0.018
ATE1 (UniProt O95260) | inactive: 0.019
ATP6V1A (UniProt P38606) | inactive: 0.041
ATP6AP1 (UniProt Q15904) | inactive: 0.082

compound: Cn1cncc1[C@@](N)(c1ccc(Cl)cc1)c1ccc2c(c1)c(-c1cccc(Cl)c1)cc(=O)n2C [tipifarnib]; test: as above
Procedure, shortened: as §1

Target | log2 fold change
ATP5F1B (UniProt H0YI37) | inactive: 0.128
AVL9 (UniProt Q8NBF6) | inactive: 0.01
ATF7IP2 (UniProt Q5U623) | inactive: -0.064
ATP5ME (UniProt P56385) | inactive: -0.009
ATP5MPL (UniProt P56378) | inactive: 0.037
ATG2A (UniProt Q2TAZ0) | inactive: -0.248
ATP5PF isoform 2 (UniProt P18859) | inactive: 0.066
ATM (UniProt Q13315) | inactive: 0.009
ATP13A1 (UniProt Q9HD20) | inactive: -0.109
ATP5F1B (UniProt F8W079) | inactive: 0.351
ATP1B1 (UniProt P05026) | inactive: -0.114
B4GALNT1 (UniProt Q00973) | inactive: -0.127
ATXN7L3 isoform 2 (UniProt Q14CW9) | inactive: 0.032
NA (UniProt B2RBV5) | inactive: 0.026
ATG16L1 (UniProt Q676U5) | inactive: 0.031
ATE1 isoform 2 (UniProt O95260) | inactive: 0.025
AURKA (UniProt O14965) | inactive: -0.088
ATP1A1 (UniProt P05023) | inactive: 0.001
ATP11C (UniProt Q8NB49) | inactive: -0.026
ATAD3B (UniProt Q5T9A4) | inactive: -0.004
ATP6V1A (UniProt P38606) | inactive: 0.012
ATP6AP1 (UniProt Q15904) | inactive: -0.036

compound: NC(=O)Nc1cc(-c2cccc(F)c2)sc1C(=O)N[C@H]1CCCNC1; test: as above
Procedure, shortened: as §1

Target | log2 fold change
ATP5F1B (UniProt H0YI37) | inactive: 0.395
AVL9 (UniProt Q8NBF6) | inactive: -0.002
ATF7IP2 (UniProt Q5U623) | inactive: 0.001
ATP5ME (UniProt P56385) | inactive: 0.002
ATP11C, A0A067XG54 | inactive: -0.132
ATP5MPL (UniProt P56378) | inactive: -0.02
ATP5PF isoform 2 (UniProt P18859) | inactive: -0.058
ATM (UniProt Q13315) | inactive: 0.009
ATP13A1 (UniProt Q9HD20) | inactive: -0.044
ATRN (UniProt O75882) | inactive: -0.001
B3GNTL1 (UniProt Q67FW5) | inactive: 0.036
ATP1B1 (UniProt P05026) | inactive: 0.007
B4GALNT1 (UniProt Q00973) | inactive: 0.018
ATXN7L3 isoform 2 (UniProt Q14CW9) | inactive: 0.043
AUH (UniProt Q13825) | inactive: -0.018
NA (UniProt B2RBV5) | inactive: -0.197
ATG16L1 (UniProt Q676U5) | inactive: -0.01
ATE1 isoform 2 (UniProt O95260) | inactive: 0.034
ASXL2 (UniProt Q76L83) | inactive: -0.009
AURKA (UniProt O14965) | inactive: 0.18
ATXN2 (UniProt F8WB05) | inactive: -0.025
ATP6V0A1 (UniProt Q93050) | inactive: 0.061
ATP1A1 (UniProt P05023) | inactive: -0.025
ATP11C (UniProt Q8NB49) | inactive: -0.002
ATP6V0C (UniProt P27449) | inactive: -0.004
ATAD3B (UniProt Q5T9A4) | inactive: 0.051
ATE1 (UniProt O95260) | inactive: -0.093
ATP6V1A (UniProt P38606) | inactive: -0.019
ATP6AP1 (UniProt Q15904) | inactive: 0.007
